The supplement of paper PMC10849652
The other results are listed elsewhere or left out. Residues, ends and D or L forms follow the SMILES beside them. *: point of attachment. Cbz = O=C(OCc1ccccc1)*

The chains behind the UniProt entries cited, without tags or fusion partners. Where a name states a change or a piece, a line headed by the entry shows the natural chain unless it says otherwise.
UniProt Q15025: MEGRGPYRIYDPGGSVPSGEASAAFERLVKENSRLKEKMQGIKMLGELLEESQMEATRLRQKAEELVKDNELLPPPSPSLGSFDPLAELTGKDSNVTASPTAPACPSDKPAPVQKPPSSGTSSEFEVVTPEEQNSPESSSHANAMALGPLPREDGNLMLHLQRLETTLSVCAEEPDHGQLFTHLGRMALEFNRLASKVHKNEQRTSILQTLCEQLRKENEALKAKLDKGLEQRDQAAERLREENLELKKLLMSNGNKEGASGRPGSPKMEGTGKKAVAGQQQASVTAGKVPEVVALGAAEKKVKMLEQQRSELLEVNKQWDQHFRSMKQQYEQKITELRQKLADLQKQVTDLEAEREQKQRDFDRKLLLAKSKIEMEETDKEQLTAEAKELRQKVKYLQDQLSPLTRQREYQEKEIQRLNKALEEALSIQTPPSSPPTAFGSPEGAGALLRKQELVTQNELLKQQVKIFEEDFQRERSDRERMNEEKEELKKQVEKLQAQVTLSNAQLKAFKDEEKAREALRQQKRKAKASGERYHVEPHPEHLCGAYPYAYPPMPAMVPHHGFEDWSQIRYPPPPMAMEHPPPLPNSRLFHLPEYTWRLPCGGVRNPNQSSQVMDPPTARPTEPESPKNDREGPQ
UniProt Q8TD43: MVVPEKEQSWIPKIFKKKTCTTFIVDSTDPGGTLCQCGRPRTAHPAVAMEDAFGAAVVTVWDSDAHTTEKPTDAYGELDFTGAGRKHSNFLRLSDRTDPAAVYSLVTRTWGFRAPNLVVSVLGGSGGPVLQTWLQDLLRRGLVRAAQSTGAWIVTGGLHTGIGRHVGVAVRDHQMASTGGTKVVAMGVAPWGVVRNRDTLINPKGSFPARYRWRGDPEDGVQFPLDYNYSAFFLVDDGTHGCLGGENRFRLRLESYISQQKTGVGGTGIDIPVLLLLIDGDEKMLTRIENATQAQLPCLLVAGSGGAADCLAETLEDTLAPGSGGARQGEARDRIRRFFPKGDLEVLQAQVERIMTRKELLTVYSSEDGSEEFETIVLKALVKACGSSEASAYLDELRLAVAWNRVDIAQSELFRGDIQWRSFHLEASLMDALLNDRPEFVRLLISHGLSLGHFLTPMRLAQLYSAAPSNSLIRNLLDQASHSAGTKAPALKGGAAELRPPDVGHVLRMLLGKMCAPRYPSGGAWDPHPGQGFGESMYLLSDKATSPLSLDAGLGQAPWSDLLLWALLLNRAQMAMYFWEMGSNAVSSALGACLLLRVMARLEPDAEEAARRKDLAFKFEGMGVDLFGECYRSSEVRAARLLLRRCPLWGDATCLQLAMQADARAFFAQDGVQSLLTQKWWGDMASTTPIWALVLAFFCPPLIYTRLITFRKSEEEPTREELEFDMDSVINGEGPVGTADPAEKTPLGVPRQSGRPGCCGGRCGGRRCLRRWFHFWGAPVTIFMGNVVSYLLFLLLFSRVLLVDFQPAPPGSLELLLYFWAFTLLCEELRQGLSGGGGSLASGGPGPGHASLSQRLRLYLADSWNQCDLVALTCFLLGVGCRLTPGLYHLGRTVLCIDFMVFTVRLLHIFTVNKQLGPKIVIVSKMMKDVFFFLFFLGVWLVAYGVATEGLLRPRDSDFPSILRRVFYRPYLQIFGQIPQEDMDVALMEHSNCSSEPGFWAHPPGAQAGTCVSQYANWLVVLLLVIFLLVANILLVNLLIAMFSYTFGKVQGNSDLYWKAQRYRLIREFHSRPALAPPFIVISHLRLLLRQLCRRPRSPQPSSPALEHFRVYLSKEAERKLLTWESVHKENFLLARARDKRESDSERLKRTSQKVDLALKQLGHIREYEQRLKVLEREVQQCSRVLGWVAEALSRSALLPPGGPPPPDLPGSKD
UniProt Q5JTV8: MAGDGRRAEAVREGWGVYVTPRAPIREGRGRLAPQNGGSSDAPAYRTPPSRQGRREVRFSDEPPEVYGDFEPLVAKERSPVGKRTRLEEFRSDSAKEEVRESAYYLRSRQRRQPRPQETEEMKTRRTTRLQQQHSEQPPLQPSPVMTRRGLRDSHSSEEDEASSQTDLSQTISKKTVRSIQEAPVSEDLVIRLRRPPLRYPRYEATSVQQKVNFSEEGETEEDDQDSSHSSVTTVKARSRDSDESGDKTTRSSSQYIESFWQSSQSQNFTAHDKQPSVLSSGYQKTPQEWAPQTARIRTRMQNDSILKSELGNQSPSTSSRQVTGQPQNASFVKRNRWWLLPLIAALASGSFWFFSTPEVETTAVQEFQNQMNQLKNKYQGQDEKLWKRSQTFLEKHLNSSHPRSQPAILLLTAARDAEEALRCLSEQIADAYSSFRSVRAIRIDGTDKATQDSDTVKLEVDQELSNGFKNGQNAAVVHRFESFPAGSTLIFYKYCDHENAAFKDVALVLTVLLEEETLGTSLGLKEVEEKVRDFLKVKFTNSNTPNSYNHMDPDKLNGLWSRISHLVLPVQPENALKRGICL
UniProt Q6PJ69: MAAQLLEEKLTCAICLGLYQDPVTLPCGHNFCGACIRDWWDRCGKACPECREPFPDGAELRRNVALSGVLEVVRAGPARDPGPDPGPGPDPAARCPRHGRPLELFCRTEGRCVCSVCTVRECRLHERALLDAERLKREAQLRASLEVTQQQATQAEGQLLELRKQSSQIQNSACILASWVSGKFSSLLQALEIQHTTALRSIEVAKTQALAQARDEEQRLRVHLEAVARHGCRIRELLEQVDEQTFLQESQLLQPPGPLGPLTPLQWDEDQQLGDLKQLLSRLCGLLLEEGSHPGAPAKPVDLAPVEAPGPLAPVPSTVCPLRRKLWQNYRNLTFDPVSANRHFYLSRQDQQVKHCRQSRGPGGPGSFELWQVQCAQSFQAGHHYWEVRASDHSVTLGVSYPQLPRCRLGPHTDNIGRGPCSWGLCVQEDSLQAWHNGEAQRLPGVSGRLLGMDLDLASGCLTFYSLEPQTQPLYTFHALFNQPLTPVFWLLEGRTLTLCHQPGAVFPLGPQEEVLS
UniProt O75865, whole entry, looked up: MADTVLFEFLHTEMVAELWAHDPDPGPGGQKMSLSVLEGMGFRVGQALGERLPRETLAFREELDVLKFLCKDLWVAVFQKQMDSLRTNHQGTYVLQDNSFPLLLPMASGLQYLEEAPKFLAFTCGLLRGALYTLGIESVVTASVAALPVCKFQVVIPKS
UniProt O95271: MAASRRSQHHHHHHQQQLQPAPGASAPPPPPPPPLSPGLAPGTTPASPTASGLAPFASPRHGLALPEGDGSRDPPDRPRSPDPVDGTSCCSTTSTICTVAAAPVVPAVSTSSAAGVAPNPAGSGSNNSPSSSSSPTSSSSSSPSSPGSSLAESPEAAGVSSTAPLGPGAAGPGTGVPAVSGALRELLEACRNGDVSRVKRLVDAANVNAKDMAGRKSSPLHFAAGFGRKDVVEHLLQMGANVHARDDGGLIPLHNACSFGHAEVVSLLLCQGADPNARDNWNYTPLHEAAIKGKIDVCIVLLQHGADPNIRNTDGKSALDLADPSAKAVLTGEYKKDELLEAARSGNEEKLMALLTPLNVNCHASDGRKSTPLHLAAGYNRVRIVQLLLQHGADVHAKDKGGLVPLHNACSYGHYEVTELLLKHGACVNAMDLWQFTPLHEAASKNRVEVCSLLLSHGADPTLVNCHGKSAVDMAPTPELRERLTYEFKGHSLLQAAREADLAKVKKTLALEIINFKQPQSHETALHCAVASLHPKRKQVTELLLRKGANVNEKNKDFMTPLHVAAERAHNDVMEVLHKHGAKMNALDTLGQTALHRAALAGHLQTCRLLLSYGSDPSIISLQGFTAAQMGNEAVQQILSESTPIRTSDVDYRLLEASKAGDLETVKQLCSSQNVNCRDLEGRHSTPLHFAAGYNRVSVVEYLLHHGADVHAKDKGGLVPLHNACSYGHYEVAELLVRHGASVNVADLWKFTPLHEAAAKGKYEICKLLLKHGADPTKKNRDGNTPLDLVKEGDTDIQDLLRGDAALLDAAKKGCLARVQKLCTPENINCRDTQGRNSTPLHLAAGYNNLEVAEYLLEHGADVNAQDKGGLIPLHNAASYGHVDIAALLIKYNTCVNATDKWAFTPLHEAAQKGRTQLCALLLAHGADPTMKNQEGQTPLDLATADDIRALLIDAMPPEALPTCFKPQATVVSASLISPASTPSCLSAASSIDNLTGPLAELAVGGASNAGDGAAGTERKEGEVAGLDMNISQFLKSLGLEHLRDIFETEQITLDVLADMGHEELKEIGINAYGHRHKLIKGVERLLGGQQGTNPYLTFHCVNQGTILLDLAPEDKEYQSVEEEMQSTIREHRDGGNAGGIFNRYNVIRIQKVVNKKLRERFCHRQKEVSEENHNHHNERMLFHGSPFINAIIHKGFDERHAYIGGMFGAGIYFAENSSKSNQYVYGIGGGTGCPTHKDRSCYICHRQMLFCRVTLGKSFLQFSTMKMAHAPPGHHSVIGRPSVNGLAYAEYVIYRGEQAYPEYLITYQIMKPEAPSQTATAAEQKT
UniProt Q13595: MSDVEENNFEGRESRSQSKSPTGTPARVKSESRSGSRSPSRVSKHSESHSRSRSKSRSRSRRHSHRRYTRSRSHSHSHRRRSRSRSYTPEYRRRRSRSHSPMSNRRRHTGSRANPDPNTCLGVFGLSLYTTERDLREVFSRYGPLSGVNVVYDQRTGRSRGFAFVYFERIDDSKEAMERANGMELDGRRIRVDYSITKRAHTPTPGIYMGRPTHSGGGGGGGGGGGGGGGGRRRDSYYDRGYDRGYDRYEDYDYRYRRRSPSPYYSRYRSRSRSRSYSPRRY
UniProt Q9P0U1: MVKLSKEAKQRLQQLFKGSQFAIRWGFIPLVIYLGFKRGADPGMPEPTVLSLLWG
UniProt Q8TDR0: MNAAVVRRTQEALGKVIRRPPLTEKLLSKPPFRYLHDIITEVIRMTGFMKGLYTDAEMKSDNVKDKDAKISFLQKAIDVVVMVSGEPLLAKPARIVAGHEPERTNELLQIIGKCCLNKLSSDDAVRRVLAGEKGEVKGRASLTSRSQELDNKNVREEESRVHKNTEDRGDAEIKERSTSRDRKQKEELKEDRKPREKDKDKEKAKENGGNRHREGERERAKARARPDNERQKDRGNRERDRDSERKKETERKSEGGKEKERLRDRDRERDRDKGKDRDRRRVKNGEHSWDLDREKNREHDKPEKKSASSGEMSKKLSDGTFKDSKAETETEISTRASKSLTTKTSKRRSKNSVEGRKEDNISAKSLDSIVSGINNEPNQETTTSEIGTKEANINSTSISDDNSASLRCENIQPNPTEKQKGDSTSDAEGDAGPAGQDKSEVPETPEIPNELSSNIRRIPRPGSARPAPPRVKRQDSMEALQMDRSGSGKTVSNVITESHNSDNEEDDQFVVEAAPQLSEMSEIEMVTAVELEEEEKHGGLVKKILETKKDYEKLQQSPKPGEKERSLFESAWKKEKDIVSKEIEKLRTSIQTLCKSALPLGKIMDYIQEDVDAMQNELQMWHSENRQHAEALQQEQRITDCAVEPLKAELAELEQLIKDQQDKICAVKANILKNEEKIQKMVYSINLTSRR
UniProt Q9H496: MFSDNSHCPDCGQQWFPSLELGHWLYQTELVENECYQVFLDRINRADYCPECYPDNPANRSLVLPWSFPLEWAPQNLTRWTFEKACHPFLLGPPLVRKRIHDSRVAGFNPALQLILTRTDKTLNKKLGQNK

Tests used:
Test in all cases: log2 fold change, soluble protein after heating vs DMSO (PISA); higher = thermal stabilisation; K562 cells, 10 uM, 30 min; active = over 0.2 and 3.5 SD of the protein, either way, in both replicates (recomputed)
[1] = compound: C#Cc1cccc(Nc2ncnc3cc(OCCOC)c(OCCOC)cc23)c1 [erlotinib]
Summary of the method: (§1)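 K562 cells at 2×10^6 cells/mL were given 10 μM compound for 30 min. Aliquots then went through 3 min of heating across 48°C-58°C, were pooled, and were extracted in PBS with 0.5% NP-40 at 4°C, and the supernatant after 21,000xg for 90 min was quantified by TMTpro 16plex LC-MS/MS with channel sums equalised. Thermal stability relative to control samples, from duplicates, is given as log2 fold change.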

[2] = compound: C1=CC(=C(C=C1Cl)C2=NC3=NC=CN=C3C(=N2)NC4=CC=NC=C4)F
Summary of the method: as §1

[3] = compound: C1=CC(=CC=C1C2=NC3=C(N2)C=C(C=C3)C(=O)N)OC4=CC=C(C=C4)Cl
Summary of the method: as §1

[4] = compound: C1=CC2=NC=CN=C2C=C1/C=C/3\C(=O)NC(=O)S3
Summary of the method: as §1

[5] = compound: C1=CC=C(C=C1)C2=NC(=C(N2)C3=CC=NC=C3)C4=CC(=C(C=C4)Cl)O
Summary of the method: as §1

[6] = compound: C1CCN(C1)C(=O)NC2=CC=CC(=C2)NC3=NC=C(C(=N3)NCCC4=CN=CN4)Br
Summary of the method: as §1

[7] = compound: C1CN(CCC1(CC2=CC=C(C=C2)Cl)N)C3=NC=NC4=C3C=CN4
Summary of the method: as §1

[8] = compound: C=CC(=O)N1CCC[C@@H](n2nc(-c3ccc(Oc4ccccc4)cc3)c3c(N)ncnc32)C1 [ibrutinib]
Summary of the method: as §1

[9] = compound: CC(C)(C)Cn1c(N)nc2ccc(-c3[nH]c(C(C)(C)C)nc3-c3ccc(F)cc3)nc21 [ralimetinib]
Summary of the method: as §1

[10] = compound: CC(C)(O)CC(=O)NCCn1ccc2ncnc(Nc3ccc(Oc4cccc(C(F)(F)F)c4)c(Cl)c3)c21
Summary of the method: as §1

[11] = compound: CC(C)C1=C2N=C(C=C(N2N=C1)NCC3=CC=CC=C3)NCCCCCCN
Summary of the method: as §1

[12] = compound: CC(C)C[C@@H](C=O)NC(=O)[C@H](CC(C)C)NC(=O)[C@H](CC(C)C)NC(=O)OCc1ccccc1
Summary of the method: as §1

[13] = compound: CC1=C(C2=C(C=C1)C(=O)C3=CC=CC=C3N2CCCN)C
Summary of the method: as §1

[14] = compound: C/C(=N\NC(=O)C1=CC(=CC=C1)S(=O)(=O)N2CCOCC2)/C3=C(C=CC(=C3)Cl)O
Summary of the method: as §1

[15] = compound: C1=CC2=C(C=CC(=C2)/C=C\3/C(=O)NC(=NCC4=CC=CS4)S3)N=C1
Summary of the method: as §1

[16] = compound: C1=CC=C2C(=C1)C3=NNC4=CC=CC(=C43)C2=O
Summary of the method: as §1

[17] = compound: C1COCCN1CCN2C3=CC=CC=C3N=C2NC(=O)C4=CC(=CC=C4)[N+](=O)[O-] [IRAK-1-4 Inhibitor I]
Summary of the method: as §1

[18] = compound: CC(=O)c1cnc2ccc(-c3cc(Cl)c(O)c(Cl)c3)nc2c1N[C@H]1CC[C@H](CN(C)C)CC1
Summary of the method: as §1

[19] = compound: CC(C)N(C[C@H]1O[C@@H](n2cnc3c(N)ncnc32)[C@H](O)[C@@H]1O)[C@H]1C[C@@H](CCc2nc3cc(C(C)(C)C)ccc3[nH]2)C1 [pinometostat]
Summary of the method: as §1

[20] = compound: CC1=C(C(CC(=O)N1)C2=CC=C(C=C2)C(F)(F)F)C(=O)NC3=C(C=C4C(=C3)C=NN4)F
Summary of the method: as §1

Measured: log2 fold change

TNIP1 (UniProt Q15025)
inactive: [1] -0.013 | [2] 0.302 | [3] -0.035 | [4] -0.045 | [5] -0.005 | [6] -0.084 | [7] 0 | [8] 0.015 | [9] 0.04 | [10] -0.084 | [11] 0.059 | [12] 0.024 | [13] -0.03

TRPM4 (UniProt Q8TD43)
inactive: [2] -0.071 | [10] 0.201

TOR1AIP1 (UniProt Q5JTV8)
inactive: [14] -0.003 | [2] 0.181 | [15] -0.026 | [4] 0.004 | [5] -0.032 | [16] -0.001 | [17] 0.033 | [8] 0.018 | [18] 0.036 | [9] -0.036 | [10] 0.087 | [12] -0.013 | [19] -0.063 | [20] 0.13

TRIM65 (UniProt Q6PJ69)
inactive: [5] 0.023 | [17] -0.004 | [9] 0.013 | [12] -0.01 | [19] 0.006

TRAPPC6A isoform 2 (UniProt O75865)
inactive: [1] 0.02 | [3] 0.04 | [4] -0.415 | [8] -0.047 | [11] -0.149 | [20] -0.029

Quoted at random: 2 records from the list
TNIP1 (UniProt Q15025)
inactive: [1] -0.013 | [2] 0.302 | [3] -0.035 | [4] -0.045 | [5] -0.005 | [6] -0.084 | [7] 0 | [8] 0.015 | [9] 0.04 | [10] -0.084 | [11] 0.059 | [12] 0.024 | [13] -0.03

TRPM4 (UniProt Q8TD43)
inactive: [2] -0.071 | [10] 0.201

Additional entries follow.

TNKS (UniProt O95271)
inactive: [14] 0.094 | [15] 0.004 | [16] 0.151 | [17] -0.536 | [18] -0.096 | [19] 0.466

TRA2A (UniProt Q13595)
inactive: [4] 0.02 | [6] 0.093 | [7] -0.184 | [8] 0.171 | [20] 0.2 | [13] 0.093

TOMM7 (UniProt Q9P0U1)
inactive: [1] -0.083 | [2] 0.166 | [3] 0.007 | [4] 0.038 | [5] -0.058 | [6] 0.006 | [7] 0.008 | [17] 0.004 | [8] 0.048 | [9] 0.048 | [10] -0.068 | [11] -0.008 | [12] 0.068 | [19] -0.114 | [20] 0.016 | [13] 0.084

TRAF3IP1 (UniProt Q8TDR0)
inactive: [14] 0.008 | [15] -0.049 | [5] -0.033 | [16] 0.118 | [17] 0.016 | [18] 0.045 | [9] 0.048 | [12] 0.11 | [19] 0.093

TOR1AIP2 (UniProt Q9H496)
inactive: [2] 0.089 | [4] 0.181 | [5] -0.074 | [8] -0.055 | [9] -0.031 | [10] 0.088 | [12] 0.165 | [20] 0.042
